Measured values: patent publication US20050069918A1
No constants are given. Whether binding was seen depends on the method and setting. In cells and extracts the contact can be indirect. Some entries that bind do so weakly or less than the wild type.

Amino acid sequences for entries named in this document (tags omitted). A change or cut given only in a name is not applied to a line headed by its entry. Residues count along the entry.
UniProt P05412, residues 1-79: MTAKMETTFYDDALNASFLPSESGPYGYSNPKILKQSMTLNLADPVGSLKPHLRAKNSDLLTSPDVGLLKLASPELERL
UniProt Q92905: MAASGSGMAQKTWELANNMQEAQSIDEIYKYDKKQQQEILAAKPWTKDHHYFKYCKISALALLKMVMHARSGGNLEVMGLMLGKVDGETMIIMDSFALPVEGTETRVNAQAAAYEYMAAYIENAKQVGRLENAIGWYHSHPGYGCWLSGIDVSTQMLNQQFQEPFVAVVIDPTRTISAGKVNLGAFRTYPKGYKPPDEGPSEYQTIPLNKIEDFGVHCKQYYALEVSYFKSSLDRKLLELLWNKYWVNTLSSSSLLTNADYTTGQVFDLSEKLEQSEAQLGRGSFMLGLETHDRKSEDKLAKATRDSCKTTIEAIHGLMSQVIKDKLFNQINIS

Assays:
[1] = target: GST-c-Jun (1-79 amino acids) fusion protein (UniProt P05412); test: GST pull-down, 35S-labelled JAB1 on immobilized GST-c-Jun (1-79)
[2] = target: GST-p27 fusion protein [GST: P08515]; test: GST pull-down, 35S-labelled JAB1 on immobilized GST-p27 (figure legend)
[3] = target: GST-p27 fusion protein [GST: P08515]; test: GST pull-down, 35S-labelled JAB1 on immobilized GST-p27
[4] = target: GST-c-Jun (1-79 amino acids) fusion protein (UniProt P05412); test: GST pull-down, 35S-labelled JAB1 on immobilized GST-c-Jun (1-79) (figure legend)

Measured: binding

JAB1 full length (FL), in vitro translated and [35S]-methionine labelled (from UniProt Q92905 2-334)
binds: all assays above
